{"sequences": {"note": "Protein sequences, listed by entry. Tags and fused reporters are not part of them. Lines headed by an entry give the natural chain unless they say otherwise; changes in a name come on top. Residues count along the entry.", "UniProt Q8N423": "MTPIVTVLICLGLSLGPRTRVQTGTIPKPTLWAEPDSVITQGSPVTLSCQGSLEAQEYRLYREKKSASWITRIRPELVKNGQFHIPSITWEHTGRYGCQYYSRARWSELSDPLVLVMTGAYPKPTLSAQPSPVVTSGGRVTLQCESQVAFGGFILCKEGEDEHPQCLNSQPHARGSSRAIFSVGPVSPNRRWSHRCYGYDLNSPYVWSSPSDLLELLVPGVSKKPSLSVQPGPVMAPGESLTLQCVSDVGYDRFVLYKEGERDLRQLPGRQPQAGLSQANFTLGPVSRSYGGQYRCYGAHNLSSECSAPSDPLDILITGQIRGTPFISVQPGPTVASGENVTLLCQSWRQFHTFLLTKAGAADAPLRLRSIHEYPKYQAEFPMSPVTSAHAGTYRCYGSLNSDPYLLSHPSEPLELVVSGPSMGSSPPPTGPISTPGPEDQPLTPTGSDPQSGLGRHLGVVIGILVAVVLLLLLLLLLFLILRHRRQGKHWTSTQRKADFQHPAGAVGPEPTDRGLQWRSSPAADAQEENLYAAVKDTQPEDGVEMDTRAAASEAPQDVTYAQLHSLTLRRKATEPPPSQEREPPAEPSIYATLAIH", "UniProt Q9NQC3, residues 1055-1120": "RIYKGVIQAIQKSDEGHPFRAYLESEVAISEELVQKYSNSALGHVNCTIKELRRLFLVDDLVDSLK"}, "source": "patent WO2009140361A1", "molecules": {"B1": {"name": "MAG-AP (human MAG fused to Alkaline Phosphatase) (ligand, UniProt P20916 20-516, looked up, not shown: large carriers)", "chain": "GHWGAWMPSSISAFEGTCVSIPCRFDFPDELRPAVVHGVWYFNSPYPKNYPPVVFKSRTQVVHESFQGRSRLLGDLGLRNCTLLLSNVSPELGGKYYFRGDLGGYNQYTFSEHSVLDIVNTPNIVVPPEVVAGTEVEVSCMVPDNCPELRPELSWLGHEGLGEPAVLGRLREDEGTWVQVSLLHFVPTREANGHRLGCQASFPNTTLQFEGYASMDVKYPPVIVEMNSSVEAIEGSHVSLLCGADSNPPPLLTWMRDGTVLREAVAESLLLELEEVTPAEDGVYACLAENAYGQDNRTVGLSVMYAPWKPTVNGTMVAVEGETVSILCSTQSNPDPILTIFKEKQILSTVIYESELQLELPAVSPEDDGEYWCVAENQYGQRATAFNLSVEFAPVLLLESHCAAARDTVQCLCVVKSNPEPSVAFELPSRNVTVNESEREFVYSERSGLVLTSILTLRGQAQAPPRVICTARNLYGAKSLELPFQGAHRLMWAKIGP"}}, "assay_in_all_cases": "expression cloning; AP-fusion bait (20-50 nM) on COS7 cells transfected with human cDNA, AP staining", "key": {"[1]": {"target": "T1, Nogo Receptor (human cDNA clone expressed on COS7 cells) (human) (UniProt Q9BZR6)", "T1 sequence (looked up)": "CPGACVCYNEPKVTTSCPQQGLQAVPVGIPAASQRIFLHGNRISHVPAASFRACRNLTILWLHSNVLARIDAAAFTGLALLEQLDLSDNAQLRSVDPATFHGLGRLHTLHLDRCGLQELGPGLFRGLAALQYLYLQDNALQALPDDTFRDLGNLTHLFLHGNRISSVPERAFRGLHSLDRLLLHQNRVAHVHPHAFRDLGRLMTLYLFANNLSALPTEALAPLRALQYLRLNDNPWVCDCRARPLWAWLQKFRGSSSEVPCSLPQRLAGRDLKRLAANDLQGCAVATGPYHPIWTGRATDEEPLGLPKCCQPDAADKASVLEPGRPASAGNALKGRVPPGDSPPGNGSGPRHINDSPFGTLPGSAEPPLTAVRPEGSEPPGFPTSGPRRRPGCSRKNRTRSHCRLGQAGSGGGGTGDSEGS"}, "[2]": {"target": "Homo sapiens leukocyte immunoglobulin-like receptor, subfamily B (with TM and ITIM domains), member 2 (LILRB2) (human) (UniProt Q8N423)"}, "[3]": {"target": "T1, Nogo Receptor (human cDNA clone expressed on COS7 cells) (human)", "remark": "listed apart in the source"}, "[4]": {"target": "T2, Homo sapiens hypothetical protein from clone 643 (LOC57228); alternative ORF homologous to SMAG (human) (UniProt Q0VAQ4)", "T2 sequence (looked up)": "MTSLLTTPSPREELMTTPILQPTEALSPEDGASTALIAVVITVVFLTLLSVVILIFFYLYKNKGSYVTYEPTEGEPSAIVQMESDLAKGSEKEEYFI"}}, "note": "Where two headings read alike, the source gives them in different places. These are yes or no findings as the source states them, for the method shown. Some entries that bind do so weakly or less than the wild type. For some of these results: Sequences can lack the tags named with a protein.", "data": [{"molecule": "AP-Nogo66 (Alkaline Phosphatase fused to human Nogo66) (from UniProt Q9NQC3 1055-1120) (ligand)", "values": [{"measurement": "binding", "setting": "[1]", "result": "binds"}, {"measurement": "binding", "setting": "[2]", "result": "binds"}]}, {"molecule": "B1", "values": [{"measurement": "binding", "setting": "[3]", "result": "binds"}, {"measurement": "binding", "setting": "[4]", "result": "binds"}]}]}
